Data: PubChem BioAssay AID488890 (Southern Research Specialized Biocontainment Screening …, 2010)
Screen size: about 320,000 compounds; about 1,300 (0.41%) were called active. The source calls these results inconclusive, neither active nor inactive. No rule for the calls is given here.

Experiment: growth inhibition of non-replicating M. tuberculosis (AID 488890);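 also: plate controls were DMSO cells for no effect and high antibiotic wells for full effect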
Settings: Mycobacterium tuberculosis non-replicating, at 25 µM, stronger effect = higher value
For `O=C(OC1CN2CCC1CC2)C1c2ccccc2Oc2ccccc21` (configuration not stated), the inhibition was inconclusive: 87.5%.
In the case of `CCc1cc(C(=O)NCC2(N3CCCCC3)CCCCC2)sc1C`, the inhibition is reported as inconclusive: 82.1%.
